Test results reported in patent US20240353397A1, “MARKERS OF RESISTANCE AND DISEASE TOLERANCE AND USES THEREOF” (priority 2021, published 2024).
For at least one compound, name, drawing or mass did not settle the structure.

Experiments:
[1] = test system: disease tolerance (T) level; experiment: Connectivity map drug screen: effect of each drug on tolerance level; format: cell-based; conditions: at least 6 cell lines of different tissues, all tissues under study
From the text: (§1) Using the drug screen of the connectivity map [Aravind Subramanian et al., Cell 171 (6): 1437-1452 (2017)], the effect of each drug on resistance and tolerance was next analyzed in at least 6 cell lines of different tissues. Identification of multiple drugs that display an effect on resistance/tolerance-related diseases allows (i) repurposing of drugs, and (ii) personalized prioritization of drugs. For instance, the screen tested three P glycoprotein inhibitors: zosuquidar, elacridar, and dofequidar. […] Thus, for specific disease in which P glycoprotein inhibitor is required, it is possible to prioritize drugs for each patient based on its baseline combination of resistance and tolerance state.

resistance (R) level = experiment: Connectivity map drug screen: effect of each drug on resistance level; format: cell-based; conditions: at least 6 cell lines of different tissues
From the text: as §1

O[C@@H](COc1cccc2ncccc12)CN1CCN([C@@H]2c3ccccc3[C@@H]3[C@H](c4ccccc42)C3(F)F)CC1 [zosuquidar]
effect on tolerance [1]: increased tolerance
effect on resistance (resistance (R) level): reduced resistance
